Laboratory results from publication PMC9799976.

Protein sequences, listed by entry. Tags and fused reporters are not part of them.
UniProt Q02248: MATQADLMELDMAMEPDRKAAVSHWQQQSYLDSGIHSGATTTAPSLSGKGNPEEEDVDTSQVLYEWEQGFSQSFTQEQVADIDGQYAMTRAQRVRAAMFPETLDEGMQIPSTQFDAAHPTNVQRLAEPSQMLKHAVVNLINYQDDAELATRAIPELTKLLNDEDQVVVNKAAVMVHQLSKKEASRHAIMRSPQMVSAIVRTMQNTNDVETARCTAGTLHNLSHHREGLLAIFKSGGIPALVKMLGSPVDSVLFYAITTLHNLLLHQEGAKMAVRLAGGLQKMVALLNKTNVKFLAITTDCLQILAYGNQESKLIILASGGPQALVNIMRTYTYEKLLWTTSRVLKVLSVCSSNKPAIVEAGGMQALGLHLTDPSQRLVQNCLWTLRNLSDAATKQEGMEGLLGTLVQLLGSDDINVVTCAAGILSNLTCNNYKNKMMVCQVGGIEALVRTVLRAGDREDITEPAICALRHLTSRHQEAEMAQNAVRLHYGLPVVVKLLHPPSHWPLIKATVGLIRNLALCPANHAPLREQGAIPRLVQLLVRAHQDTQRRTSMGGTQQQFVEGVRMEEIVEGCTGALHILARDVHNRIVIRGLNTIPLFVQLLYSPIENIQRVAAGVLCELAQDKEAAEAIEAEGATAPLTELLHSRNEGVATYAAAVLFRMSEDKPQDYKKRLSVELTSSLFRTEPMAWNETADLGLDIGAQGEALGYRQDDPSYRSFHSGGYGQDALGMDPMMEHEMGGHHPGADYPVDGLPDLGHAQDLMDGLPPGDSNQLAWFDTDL
UniProt P57780: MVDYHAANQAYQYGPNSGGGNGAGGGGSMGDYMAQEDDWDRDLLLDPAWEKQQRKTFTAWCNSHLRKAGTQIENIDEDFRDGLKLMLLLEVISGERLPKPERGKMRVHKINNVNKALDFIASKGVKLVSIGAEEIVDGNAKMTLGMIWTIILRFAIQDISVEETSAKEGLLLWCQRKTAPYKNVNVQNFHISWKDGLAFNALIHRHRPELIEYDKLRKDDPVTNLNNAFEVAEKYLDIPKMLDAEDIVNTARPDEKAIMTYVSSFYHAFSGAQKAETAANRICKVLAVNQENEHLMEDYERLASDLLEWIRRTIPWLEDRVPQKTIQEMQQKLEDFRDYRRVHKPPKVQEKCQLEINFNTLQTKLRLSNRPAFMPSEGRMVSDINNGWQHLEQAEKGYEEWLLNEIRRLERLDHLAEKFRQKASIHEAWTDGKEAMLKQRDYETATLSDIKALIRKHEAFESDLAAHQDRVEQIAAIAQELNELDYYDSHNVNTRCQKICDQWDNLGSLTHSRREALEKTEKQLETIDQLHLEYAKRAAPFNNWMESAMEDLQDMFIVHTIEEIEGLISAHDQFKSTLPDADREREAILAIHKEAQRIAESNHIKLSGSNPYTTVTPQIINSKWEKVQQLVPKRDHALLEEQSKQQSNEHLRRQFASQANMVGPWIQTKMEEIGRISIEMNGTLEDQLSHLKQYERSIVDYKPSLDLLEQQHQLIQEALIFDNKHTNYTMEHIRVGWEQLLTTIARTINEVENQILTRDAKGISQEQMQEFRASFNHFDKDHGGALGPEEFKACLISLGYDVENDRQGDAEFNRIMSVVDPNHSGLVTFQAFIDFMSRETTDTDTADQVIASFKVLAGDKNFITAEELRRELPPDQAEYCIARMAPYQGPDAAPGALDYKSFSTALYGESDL
UniProt P05213: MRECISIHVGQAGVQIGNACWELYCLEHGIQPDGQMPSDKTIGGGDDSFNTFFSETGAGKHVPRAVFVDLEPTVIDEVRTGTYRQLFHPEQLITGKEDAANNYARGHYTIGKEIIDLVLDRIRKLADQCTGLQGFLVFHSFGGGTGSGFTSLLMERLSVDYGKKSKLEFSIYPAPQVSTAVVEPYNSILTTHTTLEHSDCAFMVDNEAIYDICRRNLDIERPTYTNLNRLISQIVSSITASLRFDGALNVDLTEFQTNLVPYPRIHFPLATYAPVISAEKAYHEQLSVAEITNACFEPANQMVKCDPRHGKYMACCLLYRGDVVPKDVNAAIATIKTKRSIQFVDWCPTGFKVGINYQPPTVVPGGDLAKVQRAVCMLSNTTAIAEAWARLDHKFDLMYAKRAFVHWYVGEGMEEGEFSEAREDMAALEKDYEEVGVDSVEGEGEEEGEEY
UniProt Q9D898: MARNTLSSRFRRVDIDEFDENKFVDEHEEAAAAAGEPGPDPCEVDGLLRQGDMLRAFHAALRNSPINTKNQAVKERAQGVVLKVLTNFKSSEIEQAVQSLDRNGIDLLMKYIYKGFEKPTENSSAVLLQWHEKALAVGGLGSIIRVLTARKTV
UniProt Q8K341: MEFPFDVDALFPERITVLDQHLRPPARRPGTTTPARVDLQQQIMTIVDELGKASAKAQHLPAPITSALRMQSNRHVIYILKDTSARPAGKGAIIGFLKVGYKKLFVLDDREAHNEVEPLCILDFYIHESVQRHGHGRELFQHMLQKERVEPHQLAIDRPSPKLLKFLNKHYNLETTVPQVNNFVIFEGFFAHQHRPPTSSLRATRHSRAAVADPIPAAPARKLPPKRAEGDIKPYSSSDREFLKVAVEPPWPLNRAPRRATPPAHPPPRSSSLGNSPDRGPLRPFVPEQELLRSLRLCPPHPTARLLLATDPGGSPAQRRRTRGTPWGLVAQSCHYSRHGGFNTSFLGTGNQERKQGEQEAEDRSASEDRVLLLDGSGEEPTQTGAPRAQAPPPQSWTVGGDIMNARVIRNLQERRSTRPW
UniProt Q99KJ8: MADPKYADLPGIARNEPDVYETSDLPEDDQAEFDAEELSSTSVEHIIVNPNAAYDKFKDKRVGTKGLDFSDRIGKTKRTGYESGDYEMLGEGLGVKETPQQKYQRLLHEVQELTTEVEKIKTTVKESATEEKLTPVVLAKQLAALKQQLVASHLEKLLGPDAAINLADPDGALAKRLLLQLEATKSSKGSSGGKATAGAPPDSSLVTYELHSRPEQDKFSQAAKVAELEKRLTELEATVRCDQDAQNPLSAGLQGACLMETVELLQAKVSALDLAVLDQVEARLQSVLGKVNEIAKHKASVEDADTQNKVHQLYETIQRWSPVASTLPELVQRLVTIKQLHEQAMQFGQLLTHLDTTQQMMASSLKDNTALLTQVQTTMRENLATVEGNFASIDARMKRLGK
UniProt Q7TPR4: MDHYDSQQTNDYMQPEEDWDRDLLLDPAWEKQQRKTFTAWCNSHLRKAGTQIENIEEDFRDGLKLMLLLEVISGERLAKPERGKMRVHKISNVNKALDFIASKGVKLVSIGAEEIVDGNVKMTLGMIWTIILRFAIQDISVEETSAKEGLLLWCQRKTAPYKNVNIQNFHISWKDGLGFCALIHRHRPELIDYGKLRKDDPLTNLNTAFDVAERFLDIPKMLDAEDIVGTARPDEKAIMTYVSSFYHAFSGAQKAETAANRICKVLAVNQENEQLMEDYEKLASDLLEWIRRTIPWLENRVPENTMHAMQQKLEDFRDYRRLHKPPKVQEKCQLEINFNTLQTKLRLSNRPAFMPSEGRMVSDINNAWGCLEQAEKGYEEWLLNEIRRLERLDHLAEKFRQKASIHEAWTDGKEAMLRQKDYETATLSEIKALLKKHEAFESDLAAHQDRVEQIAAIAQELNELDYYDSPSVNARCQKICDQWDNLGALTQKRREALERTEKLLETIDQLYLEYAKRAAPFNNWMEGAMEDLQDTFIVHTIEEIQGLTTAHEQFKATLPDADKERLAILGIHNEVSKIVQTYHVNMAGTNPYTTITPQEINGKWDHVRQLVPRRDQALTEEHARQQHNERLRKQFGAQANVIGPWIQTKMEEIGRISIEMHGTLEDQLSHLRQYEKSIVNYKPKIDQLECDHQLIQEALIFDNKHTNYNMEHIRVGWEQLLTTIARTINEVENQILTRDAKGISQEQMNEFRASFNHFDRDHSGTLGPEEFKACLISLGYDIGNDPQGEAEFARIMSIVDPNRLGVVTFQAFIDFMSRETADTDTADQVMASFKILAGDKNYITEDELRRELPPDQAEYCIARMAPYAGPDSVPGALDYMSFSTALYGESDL
UniProt Q6R891: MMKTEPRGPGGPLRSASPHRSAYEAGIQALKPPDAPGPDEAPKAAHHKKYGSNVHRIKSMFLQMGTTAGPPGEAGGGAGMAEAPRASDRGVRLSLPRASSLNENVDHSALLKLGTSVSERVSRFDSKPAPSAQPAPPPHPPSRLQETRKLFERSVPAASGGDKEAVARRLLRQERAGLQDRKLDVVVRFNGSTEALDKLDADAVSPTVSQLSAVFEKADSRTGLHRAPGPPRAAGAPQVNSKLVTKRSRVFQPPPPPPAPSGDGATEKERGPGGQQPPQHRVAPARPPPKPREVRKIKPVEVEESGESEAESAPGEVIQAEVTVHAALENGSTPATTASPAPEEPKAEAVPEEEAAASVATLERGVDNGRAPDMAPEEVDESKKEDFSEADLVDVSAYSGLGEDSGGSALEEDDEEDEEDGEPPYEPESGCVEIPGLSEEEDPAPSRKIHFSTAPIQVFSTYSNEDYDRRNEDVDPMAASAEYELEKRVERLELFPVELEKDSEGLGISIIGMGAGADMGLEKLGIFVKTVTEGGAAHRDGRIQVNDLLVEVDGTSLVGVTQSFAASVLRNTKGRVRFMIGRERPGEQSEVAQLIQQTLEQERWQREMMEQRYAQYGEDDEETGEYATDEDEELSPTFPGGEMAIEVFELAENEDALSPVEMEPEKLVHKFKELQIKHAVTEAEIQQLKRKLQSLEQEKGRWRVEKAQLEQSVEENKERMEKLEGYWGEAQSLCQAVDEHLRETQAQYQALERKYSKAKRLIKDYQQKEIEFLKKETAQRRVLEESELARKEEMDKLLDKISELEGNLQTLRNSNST
UniProt Q922F4: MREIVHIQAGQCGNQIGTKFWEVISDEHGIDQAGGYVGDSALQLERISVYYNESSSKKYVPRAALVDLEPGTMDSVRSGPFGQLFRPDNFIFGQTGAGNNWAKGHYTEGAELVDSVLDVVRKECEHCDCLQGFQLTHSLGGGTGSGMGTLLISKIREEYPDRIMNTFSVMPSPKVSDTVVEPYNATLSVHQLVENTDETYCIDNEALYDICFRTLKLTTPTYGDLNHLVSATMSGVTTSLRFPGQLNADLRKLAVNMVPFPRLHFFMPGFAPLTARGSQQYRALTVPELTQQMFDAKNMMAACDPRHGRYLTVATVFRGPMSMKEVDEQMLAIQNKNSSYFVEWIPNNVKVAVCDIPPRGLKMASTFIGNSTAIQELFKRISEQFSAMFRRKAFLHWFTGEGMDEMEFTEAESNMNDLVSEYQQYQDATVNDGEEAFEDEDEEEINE
UniProt Q9D6F9: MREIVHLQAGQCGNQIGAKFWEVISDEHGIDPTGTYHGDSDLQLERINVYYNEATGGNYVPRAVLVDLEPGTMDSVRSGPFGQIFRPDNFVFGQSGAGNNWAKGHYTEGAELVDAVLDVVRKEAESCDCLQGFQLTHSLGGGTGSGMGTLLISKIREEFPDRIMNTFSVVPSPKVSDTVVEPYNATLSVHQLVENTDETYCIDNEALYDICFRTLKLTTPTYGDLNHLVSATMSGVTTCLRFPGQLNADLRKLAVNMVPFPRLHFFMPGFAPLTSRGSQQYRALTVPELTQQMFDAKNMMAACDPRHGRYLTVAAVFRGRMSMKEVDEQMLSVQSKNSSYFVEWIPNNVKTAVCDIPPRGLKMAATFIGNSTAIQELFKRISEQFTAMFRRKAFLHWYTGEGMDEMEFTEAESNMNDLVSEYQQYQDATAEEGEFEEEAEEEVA
UniProt O88487: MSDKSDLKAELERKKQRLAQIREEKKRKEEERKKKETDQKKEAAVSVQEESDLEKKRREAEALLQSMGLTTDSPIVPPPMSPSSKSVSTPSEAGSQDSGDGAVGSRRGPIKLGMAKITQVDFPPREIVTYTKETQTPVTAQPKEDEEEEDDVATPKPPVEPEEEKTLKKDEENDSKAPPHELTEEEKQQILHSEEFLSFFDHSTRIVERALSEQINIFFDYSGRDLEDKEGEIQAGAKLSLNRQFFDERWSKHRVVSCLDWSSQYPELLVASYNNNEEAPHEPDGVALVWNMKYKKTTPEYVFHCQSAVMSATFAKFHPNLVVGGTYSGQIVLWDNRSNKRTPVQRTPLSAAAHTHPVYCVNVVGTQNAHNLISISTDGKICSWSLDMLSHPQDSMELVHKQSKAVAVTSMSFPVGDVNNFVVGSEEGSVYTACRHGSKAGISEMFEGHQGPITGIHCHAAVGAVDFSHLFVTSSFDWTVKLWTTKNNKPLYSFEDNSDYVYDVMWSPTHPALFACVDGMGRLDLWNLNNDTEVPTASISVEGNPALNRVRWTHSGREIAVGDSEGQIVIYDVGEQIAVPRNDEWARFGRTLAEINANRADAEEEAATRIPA
UniProt Q9QZB9: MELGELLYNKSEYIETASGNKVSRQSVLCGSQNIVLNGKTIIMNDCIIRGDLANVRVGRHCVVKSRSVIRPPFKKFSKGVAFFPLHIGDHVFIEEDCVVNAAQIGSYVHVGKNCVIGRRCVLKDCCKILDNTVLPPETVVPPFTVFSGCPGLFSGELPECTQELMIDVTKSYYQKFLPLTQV

biological target: T1, HA-tagged doublecortin (HA-DCX), bait of the pull-down (UniProt O43602); assay: affinity purification with mass spectrometry; HA-tagged DCX immobilised on anti-HA agarose beads, mixed with protein lysates from E18 mouse brains, 16 hr at 4°C, washed four times; HA as negative control; only the target purified
T1 sequence: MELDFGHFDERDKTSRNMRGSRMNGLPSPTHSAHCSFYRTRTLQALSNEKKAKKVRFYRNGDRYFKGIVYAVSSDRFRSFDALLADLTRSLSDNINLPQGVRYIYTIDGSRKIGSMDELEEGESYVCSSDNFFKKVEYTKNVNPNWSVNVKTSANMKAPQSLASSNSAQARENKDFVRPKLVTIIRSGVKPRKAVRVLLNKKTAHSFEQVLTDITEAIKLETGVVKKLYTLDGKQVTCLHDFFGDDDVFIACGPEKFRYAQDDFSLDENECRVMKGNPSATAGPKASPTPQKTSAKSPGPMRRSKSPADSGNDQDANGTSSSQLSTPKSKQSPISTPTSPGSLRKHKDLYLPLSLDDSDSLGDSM

binding | Substance
binds | Catenin beta-1 (from UniProt Q02248 1-781)
binds | Alpha-actinin-4 (from UniProt P57780 1-912)
binds | Tubulin alpha-1B chain; tubulin alpha-4A chain (from UniProt P05213 1-451)
binds | Actin-related protein 2/3 complex subunit 5-like protein (from UniProt Q9D898 1-153)
binds | Alpha-tubulin N-acetyltransferase 1 (from UniProt Q8K341 1-421)

Continued, substance first:

Substance | binding
Dynactin subunit 2 (from UniProt Q99KJ8 1-402) | binds
Alpha-actinin-1 (from UniProt Q7TPR4 1-892) | binds
Neurabin-2 (from UniProt Q6R891 1-817) | binds
Tubulin beta-6 chain (from UniProt Q922F4 1-447) | binds
Tubulin beta-4A chain (from UniProt Q9D6F9 1-444) | binds
Cytoplasmic dynein 1 intermediate chain 2 (from UniProt O88487 1-612) | binds
Dynactin subunit 5 (from UniProt Q9QZB9 1-182) | binds

These are yes or no findings as the source states them, for the method shown. Binding seen in cells or lysates may run through a third protein. These calls come from enrichment with a bait or labelling near it, and not all partners need be listed. Where a sequence is shown, tags or fusion partners need not be part of it.
